Assay results published in the supplement of paper PMC12823440, “Inhibitors supercharge kinase turnover through native proteolytic circuits” (Nature, 2025).
Counter-ions that a name gives are not always drawn. This is one part of the list. Hit calls seldom repeat between salt and free forms of one compound.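 Kinases, fused to nanoluciferase, were expressed in K562 cells; luminescence was measured every 4 h from 2 to 18 h as percent of control (DMSO = 100%, positive control = 0%). A time point is decreased if signal falls significantly (2 sigma). Hits were called by the authors by a rule that is not shown; the count of time points alone does not decide it.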

Amino acid sequences for entries named in this document (tags omitted). A change or cut given only in a name is not applied to a line headed by its entry.
UniProt P07949, whole entry, looked up: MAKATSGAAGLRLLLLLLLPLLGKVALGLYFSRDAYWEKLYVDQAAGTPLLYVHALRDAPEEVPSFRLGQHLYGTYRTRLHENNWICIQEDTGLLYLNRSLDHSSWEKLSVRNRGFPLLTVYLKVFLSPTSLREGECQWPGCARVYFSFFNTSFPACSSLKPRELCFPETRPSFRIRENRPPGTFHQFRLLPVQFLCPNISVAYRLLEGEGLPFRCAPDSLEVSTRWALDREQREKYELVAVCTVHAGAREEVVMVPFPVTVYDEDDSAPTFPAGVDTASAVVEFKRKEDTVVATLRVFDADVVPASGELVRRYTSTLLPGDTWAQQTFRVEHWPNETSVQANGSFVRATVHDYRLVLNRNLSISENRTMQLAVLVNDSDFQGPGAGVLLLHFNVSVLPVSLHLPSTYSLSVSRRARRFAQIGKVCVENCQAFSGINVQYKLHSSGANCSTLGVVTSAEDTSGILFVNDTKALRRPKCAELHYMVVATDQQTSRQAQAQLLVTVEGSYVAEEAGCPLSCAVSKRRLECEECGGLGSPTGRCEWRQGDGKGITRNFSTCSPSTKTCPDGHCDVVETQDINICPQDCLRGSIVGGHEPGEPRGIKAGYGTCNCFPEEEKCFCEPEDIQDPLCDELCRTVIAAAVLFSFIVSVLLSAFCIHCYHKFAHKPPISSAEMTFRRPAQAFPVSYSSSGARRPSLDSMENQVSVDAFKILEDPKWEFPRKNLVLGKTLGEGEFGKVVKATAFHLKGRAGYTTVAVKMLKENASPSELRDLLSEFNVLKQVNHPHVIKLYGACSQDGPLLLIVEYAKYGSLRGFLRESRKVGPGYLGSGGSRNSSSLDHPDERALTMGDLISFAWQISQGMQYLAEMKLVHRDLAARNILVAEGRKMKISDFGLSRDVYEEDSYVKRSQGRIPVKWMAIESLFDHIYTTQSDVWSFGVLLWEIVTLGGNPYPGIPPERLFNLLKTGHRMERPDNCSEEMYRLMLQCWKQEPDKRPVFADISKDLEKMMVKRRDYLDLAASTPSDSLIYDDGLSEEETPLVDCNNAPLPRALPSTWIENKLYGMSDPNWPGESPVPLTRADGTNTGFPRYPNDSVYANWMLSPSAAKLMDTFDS
UniProt P07949, whole entry M918T, looked up: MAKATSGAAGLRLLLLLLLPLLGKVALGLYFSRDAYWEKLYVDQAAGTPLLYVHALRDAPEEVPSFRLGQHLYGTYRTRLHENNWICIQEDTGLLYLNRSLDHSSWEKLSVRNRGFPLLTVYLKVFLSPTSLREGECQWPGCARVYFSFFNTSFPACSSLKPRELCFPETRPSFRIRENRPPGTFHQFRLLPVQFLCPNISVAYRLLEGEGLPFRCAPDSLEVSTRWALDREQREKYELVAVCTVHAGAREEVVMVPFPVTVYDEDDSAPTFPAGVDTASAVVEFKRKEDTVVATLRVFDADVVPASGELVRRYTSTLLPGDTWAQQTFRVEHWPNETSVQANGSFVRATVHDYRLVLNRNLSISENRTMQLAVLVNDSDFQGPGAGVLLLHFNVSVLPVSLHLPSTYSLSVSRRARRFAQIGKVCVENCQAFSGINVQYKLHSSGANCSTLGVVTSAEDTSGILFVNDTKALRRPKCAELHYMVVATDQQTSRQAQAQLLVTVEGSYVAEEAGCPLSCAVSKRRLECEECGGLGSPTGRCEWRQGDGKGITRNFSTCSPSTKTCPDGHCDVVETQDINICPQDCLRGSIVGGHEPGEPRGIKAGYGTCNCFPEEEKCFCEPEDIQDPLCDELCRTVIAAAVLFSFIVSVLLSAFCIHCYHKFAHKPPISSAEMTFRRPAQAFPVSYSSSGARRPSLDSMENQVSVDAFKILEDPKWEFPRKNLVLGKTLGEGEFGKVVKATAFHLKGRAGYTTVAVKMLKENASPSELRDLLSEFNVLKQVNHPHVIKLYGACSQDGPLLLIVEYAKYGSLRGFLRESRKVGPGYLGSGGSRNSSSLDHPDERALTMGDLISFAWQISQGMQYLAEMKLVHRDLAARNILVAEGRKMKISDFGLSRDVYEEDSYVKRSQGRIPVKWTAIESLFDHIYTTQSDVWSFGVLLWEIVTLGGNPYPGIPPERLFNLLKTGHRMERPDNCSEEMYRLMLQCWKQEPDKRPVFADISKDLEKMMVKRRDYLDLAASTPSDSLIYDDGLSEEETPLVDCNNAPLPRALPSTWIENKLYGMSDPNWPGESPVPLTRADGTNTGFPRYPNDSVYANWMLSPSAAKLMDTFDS
UniProt Q9BRS2: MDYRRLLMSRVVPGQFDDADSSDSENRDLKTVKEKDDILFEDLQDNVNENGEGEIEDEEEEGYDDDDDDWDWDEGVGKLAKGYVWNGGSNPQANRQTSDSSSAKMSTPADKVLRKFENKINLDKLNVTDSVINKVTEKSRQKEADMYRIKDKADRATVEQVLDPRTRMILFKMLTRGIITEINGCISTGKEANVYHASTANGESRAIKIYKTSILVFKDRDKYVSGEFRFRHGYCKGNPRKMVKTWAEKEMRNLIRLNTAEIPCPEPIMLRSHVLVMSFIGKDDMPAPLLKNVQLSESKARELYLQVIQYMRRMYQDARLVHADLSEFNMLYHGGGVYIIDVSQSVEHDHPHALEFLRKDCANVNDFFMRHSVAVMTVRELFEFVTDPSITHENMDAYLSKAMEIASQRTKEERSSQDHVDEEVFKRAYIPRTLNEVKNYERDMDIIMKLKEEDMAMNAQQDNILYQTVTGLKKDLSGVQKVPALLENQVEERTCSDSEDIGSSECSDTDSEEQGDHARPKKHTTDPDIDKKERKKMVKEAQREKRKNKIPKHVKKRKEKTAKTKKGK
UniProt Q13546: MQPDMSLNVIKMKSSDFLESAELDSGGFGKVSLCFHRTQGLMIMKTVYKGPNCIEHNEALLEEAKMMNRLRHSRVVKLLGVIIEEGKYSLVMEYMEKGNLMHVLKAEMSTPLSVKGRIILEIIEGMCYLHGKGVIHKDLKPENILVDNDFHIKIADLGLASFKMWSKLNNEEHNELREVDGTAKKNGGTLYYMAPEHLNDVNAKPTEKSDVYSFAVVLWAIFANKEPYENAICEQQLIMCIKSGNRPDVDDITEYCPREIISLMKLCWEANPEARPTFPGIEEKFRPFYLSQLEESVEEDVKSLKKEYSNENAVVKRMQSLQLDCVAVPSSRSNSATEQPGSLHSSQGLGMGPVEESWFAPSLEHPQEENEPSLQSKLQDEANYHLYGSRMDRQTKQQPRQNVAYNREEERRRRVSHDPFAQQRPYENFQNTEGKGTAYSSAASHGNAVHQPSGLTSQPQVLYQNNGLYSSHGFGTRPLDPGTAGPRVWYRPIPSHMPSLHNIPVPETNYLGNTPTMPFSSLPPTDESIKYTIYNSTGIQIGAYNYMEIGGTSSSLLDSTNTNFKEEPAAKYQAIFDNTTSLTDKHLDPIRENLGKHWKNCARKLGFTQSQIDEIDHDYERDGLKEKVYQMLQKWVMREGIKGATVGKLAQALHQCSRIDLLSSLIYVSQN
UniProt Q01974, whole entry: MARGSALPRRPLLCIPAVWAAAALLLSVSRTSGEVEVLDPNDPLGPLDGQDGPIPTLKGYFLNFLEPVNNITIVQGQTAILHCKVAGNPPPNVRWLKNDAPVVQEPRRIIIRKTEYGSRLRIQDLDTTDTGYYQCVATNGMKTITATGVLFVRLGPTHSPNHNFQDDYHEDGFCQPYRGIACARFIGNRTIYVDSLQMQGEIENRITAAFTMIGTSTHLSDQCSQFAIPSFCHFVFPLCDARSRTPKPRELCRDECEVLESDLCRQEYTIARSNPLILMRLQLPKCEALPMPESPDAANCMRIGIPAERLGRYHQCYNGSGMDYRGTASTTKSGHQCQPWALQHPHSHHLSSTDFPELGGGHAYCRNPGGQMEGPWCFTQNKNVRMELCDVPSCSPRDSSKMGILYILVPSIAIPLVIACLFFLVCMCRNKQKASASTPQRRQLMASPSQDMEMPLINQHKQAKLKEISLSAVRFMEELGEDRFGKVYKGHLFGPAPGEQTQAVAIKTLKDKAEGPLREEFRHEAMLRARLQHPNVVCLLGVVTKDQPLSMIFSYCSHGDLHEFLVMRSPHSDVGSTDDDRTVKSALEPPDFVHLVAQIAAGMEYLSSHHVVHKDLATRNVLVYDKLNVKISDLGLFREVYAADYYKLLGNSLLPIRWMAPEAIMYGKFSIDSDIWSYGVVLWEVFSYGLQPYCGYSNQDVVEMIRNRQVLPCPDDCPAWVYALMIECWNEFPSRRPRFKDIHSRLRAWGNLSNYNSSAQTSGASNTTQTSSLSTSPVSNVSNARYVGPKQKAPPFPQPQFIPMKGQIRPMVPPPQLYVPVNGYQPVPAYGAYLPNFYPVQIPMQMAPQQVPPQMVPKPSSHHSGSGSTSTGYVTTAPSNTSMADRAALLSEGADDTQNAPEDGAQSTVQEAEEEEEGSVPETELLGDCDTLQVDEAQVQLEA
UniProt Q15418, whole entry: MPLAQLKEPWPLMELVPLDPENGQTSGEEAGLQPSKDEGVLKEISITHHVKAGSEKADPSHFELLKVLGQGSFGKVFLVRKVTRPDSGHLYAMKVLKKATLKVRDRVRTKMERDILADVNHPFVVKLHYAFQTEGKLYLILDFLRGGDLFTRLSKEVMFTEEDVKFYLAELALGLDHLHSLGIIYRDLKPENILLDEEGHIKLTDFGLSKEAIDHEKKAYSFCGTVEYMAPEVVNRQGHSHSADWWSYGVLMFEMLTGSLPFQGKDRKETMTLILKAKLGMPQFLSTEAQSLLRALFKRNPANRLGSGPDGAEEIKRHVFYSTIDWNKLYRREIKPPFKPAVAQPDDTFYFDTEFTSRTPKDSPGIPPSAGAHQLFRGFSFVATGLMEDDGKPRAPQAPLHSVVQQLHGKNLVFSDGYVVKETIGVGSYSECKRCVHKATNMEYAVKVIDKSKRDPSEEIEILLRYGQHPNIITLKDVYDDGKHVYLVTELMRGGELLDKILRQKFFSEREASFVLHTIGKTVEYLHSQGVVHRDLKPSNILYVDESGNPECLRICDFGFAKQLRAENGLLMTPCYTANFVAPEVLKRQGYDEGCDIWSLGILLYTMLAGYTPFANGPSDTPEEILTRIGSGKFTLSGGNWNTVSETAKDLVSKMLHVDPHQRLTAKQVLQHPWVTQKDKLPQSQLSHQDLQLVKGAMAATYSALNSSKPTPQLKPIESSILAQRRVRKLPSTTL
UniProt Q9NYA1, whole entry: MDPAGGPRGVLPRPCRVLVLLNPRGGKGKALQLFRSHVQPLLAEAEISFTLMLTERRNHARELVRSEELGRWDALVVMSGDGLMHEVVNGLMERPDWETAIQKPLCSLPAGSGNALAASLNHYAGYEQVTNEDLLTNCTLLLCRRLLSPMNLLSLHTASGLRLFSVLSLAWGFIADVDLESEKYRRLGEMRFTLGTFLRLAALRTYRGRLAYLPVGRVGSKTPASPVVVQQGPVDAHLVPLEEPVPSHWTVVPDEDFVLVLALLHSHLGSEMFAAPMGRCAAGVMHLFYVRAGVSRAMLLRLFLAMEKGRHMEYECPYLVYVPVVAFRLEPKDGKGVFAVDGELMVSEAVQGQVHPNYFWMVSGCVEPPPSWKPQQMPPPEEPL
UniProt Q9Y6E0: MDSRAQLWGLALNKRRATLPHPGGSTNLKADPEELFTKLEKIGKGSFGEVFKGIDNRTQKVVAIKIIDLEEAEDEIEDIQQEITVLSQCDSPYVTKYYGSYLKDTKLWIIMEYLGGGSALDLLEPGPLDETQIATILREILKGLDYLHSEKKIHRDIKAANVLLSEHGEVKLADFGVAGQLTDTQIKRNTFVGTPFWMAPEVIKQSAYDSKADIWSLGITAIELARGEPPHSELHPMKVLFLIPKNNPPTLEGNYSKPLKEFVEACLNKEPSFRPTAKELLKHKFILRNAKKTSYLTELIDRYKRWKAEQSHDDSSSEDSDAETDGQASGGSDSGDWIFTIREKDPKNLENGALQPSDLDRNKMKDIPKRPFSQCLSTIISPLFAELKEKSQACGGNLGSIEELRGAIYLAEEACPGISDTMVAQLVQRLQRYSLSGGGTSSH

Tests used:
Assay in all cases: kinase-Nluc reporter destabilization hit call (1 = scored as downregulated) (binary); higher = compound decreases kinase abundance
Conditions in all cases: K562, 2-18 h
RET = RET (UniProt P07949)
[1] = molecular target: RET_M918T (clone: RET_mut) (UniProt P07949)
RIOK1 = RIOK1 (UniProt Q9BRS2)
RIPK1 = RIPK1 (UniProt Q13546)
RIPK2 = RIPK2 (UniProt O43353)
ROR2 = ROR2 (UniProt Q01974)
RPS6KA1 = RPS6KA1 (UniProt Q15418)
SPHK1 = SPHK1 (UniProt Q9NYA1)
SRC = SRC (UniProt P12931)
STK24 = STK24 (UniProt Q9Y6E0)

Measured: kinase-Nluc reporter destabilization hit call

Clc1ccc(C2(c3ccc(-c4cn[nH]c4)cc3)CCNCC2)cc1 [AT7867 (dihydrochloride)]
inactive: RET; 2.5 µM 0 | [1]; 2.5 µM 0 | RIOK1; 2.5 µM 0 | RIPK1; 2.5 µM 0 | RIPK2; 2.5 µM 0 | ROR2; 2.5 µM 0 | RPS6KA1; 2.5 µM 0 | SPHK1; 2.5 µM 0 | SRC; 2.5 µM 0 | STK24; 2.5 µM 0

O=C(Nc1ccncc1)Nc1ccc(-c2nc(N3CCOCC3)nc(N3C4CCC3COC4)n2)cc1 [PKI-179 (hydrochloride)]
inactive: RET; 2.5 µM 0 | [1]; 2.5 µM 0 | RIOK1; 2.5 µM 0 | RIPK1; 2.5 µM 0 | RIPK2; 2.5 µM 0 | ROR2; 2.5 µM 0 | RPS6KA1; 2.5 µM 0 | SPHK1; 2.5 µM 0 | SRC; 2.5 µM 0 | STK24; 2.5 µM 0

CS(=O)(=O)N1CCN(Cc2cc3nc(-c4cccc5[nH]ncc45)nc(N4CCOCC4)c3s2)CC1 [Pictilisib]
inactive: RET; 10 µM 0 | [1]; 10 µM 0 | RIOK1; 10 µM 0 | RIPK1; 10 µM 0 | RIPK2; 10 µM 0 | ROR2; 10 µM 0 | RPS6KA1; 10 µM 0 | SPHK1; 10 µM 0 | SRC; 10 µM 0 | STK24; 10 µM 0

CCCC(=O)Nc1ncnc2c1ncn2[C@@H]1O[C@@H]2COP(=O)(O)O[C@H]2[C@H]1OC(=O)CCC [Bucladesine (calcium)]
inactive: RET; 10 µM 0 | [1]; 10 µM 0 | RIOK1; 10 µM 0 | RIPK1; 10 µM 0 | RIPK2; 10 µM 0 | ROR2; 10 µM 0 | RPS6KA1; 10 µM 0 | SPHK1; 10 µM 0 | SRC; 10 µM 0 | STK24; 10 µM 0

C=CC(=O)Nc1cc2c(Nc3ccc(F)c(Cl)c3)ncnc2cc1C#CC(C)(C)N1CCN(C)CC1 [AV-412 (free base)]
inactive: RET; 2.5 µM 0 | [1]; 2.5 µM 0 | RIOK1; 2.5 µM 0 | RIPK1; 2.5 µM 0 | RIPK2; 2.5 µM 0 | ROR2; 2.5 µM 0 | RPS6KA1; 2.5 µM 0 | SPHK1; 2.5 µM 0 | SRC; 2.5 µM 0 | STK24; 2.5 µM 0

CCCCCCCCc1ccc(CCC(N)(CO)CO)cc1 [Fingolimod]
inactive: RET; 2.5 µM 0 | [1]; 2.5 µM 0 | RIOK1; 2.5 µM 0 | RIPK1; 2.5 µM 0 | RIPK2; 2.5 µM 0 | ROR2; 2.5 µM 0 | RPS6KA1; 2.5 µM 0 | SPHK1; 2.5 µM 0 | SRC; 2.5 µM 0 | STK24; 2.5 µM 0

C#Cc1cccc(Nc2ncnc3cc(OCCOC)c(OCCO)cc23)c1 [Desmethyl Erlotinib (hydrochloride)]
inactive: RET; 10 µM 0 | [1]; 10 µM 0 | RIOK1; 10 µM 0 | RIPK1; 10 µM 0 | RIPK2; 10 µM 0 | ROR2; 10 µM 0 | RPS6KA1; 10 µM 0 | SPHK1; 10 µM 0 | SRC; 10 µM 0 | STK24; 10 µM 0

N#CC[C@H](C1CCCC1)n1cc(-c2ncnc3[nH]ccc23)cn1 [Ruxolitinib]
inactive: RIOK1; 10 µM 0 | RIPK1; 10 µM 0 | RIPK2; 10 µM 0 | ROR2; 10 µM 0 | RPS6KA1; 10 µM 0 | SPHK1; 10 µM 0 | SRC; 10 µM 0 | STK24; 10 µM 0

CS(=O)(=O)N1CCN(Cc2cc3nc(-c4cccc5[nH]ncc45)nc(N4CCOCC4)c3s2)CC1 [Pictilisib (dimethanesulfonate)]
inactive: RET; 10 µM 0 | [1]; 10 µM 0 | RIOK1; 10 µM 0 | RIPK1; 10 µM 0 | RIPK2; 10 µM 0 | ROR2; 10 µM 0 | RPS6KA1; 10 µM 0 | SPHK1; 10 µM 0 | SRC; 10 µM 0 | STK24; 10 µM 0

C=CC(=O)Nc1cc(Nc2nccc(-c3cn(C4CC4)c4ccccc34)n2)c(OC)cc1N(C)CCN(C)C [Almonertinib]
inactive: RET; 2.5 µM 0 | [1]; 2.5 µM 0 | RIOK1; 2.5 µM 0 | RIPK1; 2.5 µM 0 | RIPK2; 2.5 µM 0 | ROR2; 2.5 µM 0 | RPS6KA1; 2.5 µM 0 | SPHK1; 2.5 µM 0 | SRC; 2.5 µM 0 | STK24; 2.5 µM 0

CC(C)Nc1cc(-c2c[nH]c(C(=O)N[C@H](CO)c3cccc(Cl)c3)c2)c(Cl)cn1 [Ulixertinib]
inactive: RET; 10 µM 0 | [1]; 10 µM 0 | RIOK1; 10 µM 0 | RIPK1; 10 µM 0 | RIPK2; 10 µM 0 | ROR2; 10 µM 0 | RPS6KA1; 10 µM 0 | SPHK1; 10 µM 0 | SRC; 10 µM 0 | STK24; 10 µM 0

CCS(=O)(=O)N1CC(CC#N)(n2cc(-c3ncnc4[nH]ccc34)cn2)C1 [Baricitinib (phosphate)]
inactive: RET; 10 µM 0 | [1]; 10 µM 0 | RIOK1; 10 µM 0 | RIPK1; 10 µM 0 | RIPK2; 10 µM 0 | ROR2; 10 µM 0 | RPS6KA1; 10 µM 0 | SPHK1; 10 µM 0 | SRC; 10 µM 0 | STK24; 10 µM 0

C=CC(=O)Nc1cc2c(Nc3ccc(F)c(Cl)c3)ncnc2cc1C#CC(C)(C)N1CCN(C)CC1
inactive: RET; 2.5 µM 0 | [1]; 2.5 µM 0 | RIOK1; 2.5 µM 0 | RIPK1; 2.5 µM 0 | RIPK2; 2.5 µM 0 | ROR2; 2.5 µM 0 | RPS6KA1; 2.5 µM 0 | SPHK1; 2.5 µM 0 | SRC; 2.5 µM 0 | STK24; 2.5 µM 0

N#CCC1(n2cc(-c3ncnc4[nH]ccc34)cn2)CN(C2CCN(C(=O)c3ccnc(C(F)(F)F)c3F)CC2)C1 [Itacitinib adipate]
inactive: RET; 10 µM 0 | [1]; 10 µM 0 | RIOK1; 10 µM 0 | RIPK1; 10 µM 0 | RIPK2; 10 µM 0 | ROR2; 10 µM 0 | RPS6KA1; 10 µM 0 | SPHK1; 10 µM 0 | SRC; 10 µM 0 | STK24; 10 µM 0

Cc1[nH]c(/C=C2\C(=O)Nc3ccc(F)cc32)c(C)c1C(=O)NCCN1CCCC1 [Toceranib (phosphate)]
inactive: RET; 2 µM 0 | [1]; 2 µM 0 | RIOK1; 2 µM 0 | RIPK1; 2 µM 0 | RIPK2; 2 µM 0 | ROR2; 2 µM 0 | RPS6KA1; 2 µM 0 | SPHK1; 2 µM 0 | SRC; 2 µM 0 | STK24; 2 µM 0

CC(=O)Nc1cccc(-n2c(=O)n(C3CC3)c(=O)c3c(Nc4ccc(I)cc4F)n(C)c(=O)c(C)c32)c1 [Trametinib (DMSO solvate)]
inactive: RET; 10 µM 0 | [1]; 10 µM 0 | RIOK1; 10 µM 0 | RIPK1; 10 µM 0 | RIPK2; 10 µM 0 | ROR2; 10 µM 0 | RPS6KA1; 10 µM 0 | SPHK1; 10 µM 0 | SRC; 10 µM 0 | STK24; 10 µM 0

c1cc(-c2cnn3cc(-c4ccc(OCCN5CCCCC5)cc4)cnc23)ccn1 [Dorsomorphin]
inactive: RET; 2.5 µM 0 | [1]; 2.5 µM 0 | RIOK1; 2.5 µM 0 | RIPK1; 2.5 µM 0 | RIPK2; 2.5 µM 0 | ROR2; 2.5 µM 0 | RPS6KA1; 2.5 µM 0 | SPHK1; 2.5 µM 0 | SRC; 2.5 µM 0 | STK24; 2.5 µM 0

C#Cc1cccc(Nc2ncnc3cc(OCCOC)c(OCCOC)cc23)c1 [Erlotinib (Hydrochloride)]
inactive: RET; 10 µM 0 | [1]; 10 µM 0 | RIOK1; 10 µM 0 | RIPK1; 10 µM 0 | RIPK2; 10 µM 0 | ROR2; 10 µM 0 | RPS6KA1; 10 µM 0 | SPHK1; 10 µM 0 | SRC; 10 µM 0 | STK24; 10 µM 0

CC(C)Oc1ccc(-c2nn([C@@H](C)c3oc4ccc(F)cc4c(=O)c3-c3cccc(F)c3)c3ncnc(N)c23)cc1F [Umbralisib]
inactive: RET; 2.5 µM 0 | [1]; 2.5 µM 0 | RIOK1; 2.5 µM 0 | RIPK1; 2.5 µM 0 | RIPK2; 2.5 µM 0 | ROR2; 2.5 µM 0 | RPS6KA1; 2.5 µM 0 | SPHK1; 2.5 µM 0 | SRC; 2.5 µM 0 | STK24; 2.5 µM 0

CC(C)(C)n1nc(-c2cccc3ccccc23)c2c(N)ncnc21 [1-Naphthyl PP1]
inactive: RET; 10 µM 0 | [1]; 10 µM 0 | RIOK1; 10 µM 0 | RIPK1; 10 µM 0 | RIPK2; 10 µM 0 | ROR2; 10 µM 0 | RPS6KA1; 10 µM 0 | SPHK1; 10 µM 0 | SRC; 10 µM 0 | STK24; 10 µM 0

C=CC(=O)Nc1cc(Nc2nccc(-c3cn(C)c4ccccc34)n2)c(OC)cc1N(C)CCN(C)C [Osimertinib]
inactive: RET; 2.5 µM 0 | [1]; 2.5 µM 0 | RIOK1; 2.5 µM 0 | RIPK1; 2.5 µM 0 | RIPK2; 2.5 µM 0 | ROR2; 2.5 µM 0 | RPS6KA1; 2.5 µM 0 | SPHK1; 2.5 µM 0 | SRC; 2.5 µM 0 | STK24; 2.5 µM 0

N#CC[C@H](C1CCCC1)n1cc(-c2ncnc3[nH]ccc23)cn1 [Ruxolitinib (phosphate)]
inactive: RIOK1; 10 µM 0 | RIPK1; 10 µM 0 | RIPK2; 10 µM 0 | ROR2; 10 µM 0 | RPS6KA1; 10 µM 0 | SPHK1; 10 µM 0 | SRC; 10 µM 0 | STK24; 10 µM 0

C=CC(=O)Nc1cc(Nc2nccc(-c3cn(C4CC4)c4ccccc34)n2)c(OC)cc1N(C)CCN(C)C [Almonertinib (hydrochloride)]
inactive: RET; 2.5 µM 0 | [1]; 2.5 µM 0 | RIOK1; 2.5 µM 0 | RIPK1; 2.5 µM 0 | RIPK2; 2.5 µM 0 | ROR2; 2.5 µM 0 | RPS6KA1; 2.5 µM 0 | SPHK1; 2.5 µM 0 | SRC; 2.5 µM 0 | STK24; 2.5 µM 0

COc1cc2c(Oc3ccc4[nH]c(C)cc4c3F)ncnc2cc1OCCCN1CCCC1 [Cediranib (maleate)]
inactive: RET; 2.5 µM 0 | [1]; 2.5 µM 0 | RIOK1; 2.5 µM 0 | RIPK1; 2.5 µM 0 | RIPK2; 2.5 µM 0 | ROR2; 2.5 µM 0 | RPS6KA1; 2.5 µM 0 | SPHK1; 2.5 µM 0 | SRC; 2.5 µM 0 | STK24; 2.5 µM 0

O=C(c1ccc(F)c(F)c1Nc1ccc(I)cc1F)N1CC(O)([C@@H]2CCCCN2)C1 [Cobimetinib]
inactive: RET; 10 µM 0 | [1]; 10 µM 0 | RIOK1; 10 µM 0 | RIPK1; 10 µM 0 | RIPK2; 10 µM 0 | ROR2; 10 µM 0 | RPS6KA1; 10 µM 0 | SPHK1; 10 µM 0 | SRC; 10 µM 0 | STK24; 10 µM 0

C#Cc1cccc(Nc2ncnc3cc(OCCOC)c(OCCOC)cc23)c1 [Erlotinib]
inactive: RET; 10 µM 0 | [1]; 10 µM 0 | RIOK1; 10 µM 0 | RIPK1; 10 µM 0 | RIPK2; 10 µM 0 | ROR2; 10 µM 0 | RPS6KA1; 10 µM 0 | SPHK1; 10 µM 0 | SRC; 10 µM 0 | STK24; 10 µM 0

Looked up one by one from the entries so far (2):
CS(=O)(=O)N1CCN(Cc2cc3nc(-c4cccc5[nH]ncc45)nc(N4CCOCC4)c3s2)CC1 [Pictilisib (dimethanesulfonate)]
inactive: RET; 10 µM 0 | [1]; 10 µM 0 | RIOK1; 10 µM 0 | RIPK1; 10 µM 0 | RIPK2; 10 µM 0 | ROR2; 10 µM 0 | RPS6KA1; 10 µM 0 | SPHK1; 10 µM 0 | SRC; 10 µM 0 | STK24; 10 µM 0

O=C(Nc1ccncc1)Nc1ccc(-c2nc(N3CCOCC3)nc(N3C4CCC3COC4)n2)cc1 [PKI-179 (hydrochloride)]
inactive: RET; 2.5 µM 0 | [1]; 2.5 µM 0 | RIOK1; 2.5 µM 0 | RIPK1; 2.5 µM 0 | RIPK2; 2.5 µM 0 | ROR2; 2.5 µM 0 | RPS6KA1; 2.5 µM 0 | SPHK1; 2.5 µM 0 | SRC; 2.5 µM 0 | STK24; 2.5 µM 0

Continued.

C[C@@H](N)[C@H]1CC[C@H](C(=O)Nc2ccncc2)CC1
inactive: RIOK1; 10 µM 0 | RIPK1; 10 µM 0 | RIPK2; 10 µM 0 | ROR2; 10 µM 0 | RPS6KA1; 10 µM 0 | SPHK1; 10 µM 0 | SRC; 10 µM 0 | STK24; 10 µM 0
